Assay results taken from publication PMC5029927.

B1: SrbB (protein, UniProt Q4W9W8 1-299)
chain: MAYNNRPDASTAFTFDNDDRFVNQQPKGPDPLSANWSYDSAIDLFSLNTMLPETFPLDIPNDMLLDPKDFPTDLFAPPADISGFAISHSGEDSLSSDQESEDQPWSPAYRVSSLDSTTPDAPTVSPRSTEKPATRRRTTTQKREQATRWSSSPEMTPQEYPVTSQATTSPAPAPVSPPAASTSRKNSRSLSTDSQTATGRNAAKRAAHNIIEKRYRTNMNAKFVALEKAMSGSGVQKPTKGGSGPASLKKSEILTNAIAYMQELQDQNAALQKELALLKQNLLPGGLWRHNKENDKFRT

Experiments:
Experiment in all cases: affinity purification with mass spectrometry; tandem affinity purification (TAP) with TAP-tagged Fbx15, Fbx15(P12S), SconB and SconB(P200S), LC-MS/MS; modified protocol in S1 Text
[1] = target: Fbx15-TAP (Aspergillus fumigatus) (UniProt Q4WYT1)
[2] = target: T1, SconB-TAP (Aspergillus fumigatus) (UniProt B0XTS1)
T1 sequence: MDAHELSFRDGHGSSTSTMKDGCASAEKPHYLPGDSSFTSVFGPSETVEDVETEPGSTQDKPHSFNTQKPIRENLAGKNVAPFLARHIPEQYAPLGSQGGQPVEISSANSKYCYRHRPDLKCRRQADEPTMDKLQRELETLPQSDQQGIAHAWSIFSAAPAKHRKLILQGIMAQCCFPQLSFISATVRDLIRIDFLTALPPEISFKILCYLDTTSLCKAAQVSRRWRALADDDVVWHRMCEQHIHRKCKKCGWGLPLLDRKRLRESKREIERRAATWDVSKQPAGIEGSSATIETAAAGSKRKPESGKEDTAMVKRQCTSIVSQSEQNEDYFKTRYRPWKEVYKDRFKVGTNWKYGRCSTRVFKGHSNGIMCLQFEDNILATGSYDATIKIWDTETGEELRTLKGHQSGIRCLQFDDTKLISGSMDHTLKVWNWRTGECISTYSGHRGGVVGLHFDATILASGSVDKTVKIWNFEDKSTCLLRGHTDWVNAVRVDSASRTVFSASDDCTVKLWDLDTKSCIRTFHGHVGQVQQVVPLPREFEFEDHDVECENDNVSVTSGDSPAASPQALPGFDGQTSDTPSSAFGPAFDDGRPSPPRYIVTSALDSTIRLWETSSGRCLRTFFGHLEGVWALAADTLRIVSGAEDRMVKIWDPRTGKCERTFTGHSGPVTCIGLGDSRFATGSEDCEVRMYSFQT

[3] = target: Fbx15-TAP (Aspergillus fumigatus) (UniProt Q4WYT1); remark: listed apart in the source

Row | Molecule | binding [1] | binding [2] | binding [3]
1 | DNA repair enzyme (AFUA_2G06140) (from UniProt Q4WHA0) | binds | binds | –
2 | MetR | – | binds | –
3 | SsnF | – | no binding | –
4 | SkpA | – | binds | –
5 | single-stranded DNA binding protein (AFUA_5G07890/Rim1p) (from UniProt Q4WUB7) | binds | binds | –
6 | CulA | – | binds | –
7 | RcoA | – | binds | –
8 | B1 | – | – | binds

Read-outs that look alike come from different tables or passages of the source. Results are given in words; binding and its absence hold for the method and conditions named. In cells and extracts the contact can be indirect. Here binding means that the protein was enriched with, or labelled near, the bait; the list need not be complete. For some of these results: No binding means not detected with the bait.
